This is one part of the list.
Compound: CC1Cc2ccccc2N1C(=O)C1CCCN(C1)C(=O)CCl (mixture of isomers) [TRIM25 ligand 11 (diastereomer mixture)]
Experiment: probe-labelled cysteine peptide fold change vs DMSO (competition) (log2 fold change); higher = less target engagement (more negative = stronger competition)
Conditions: THP-1, incubation time: 4 h
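Further: competitive chemoproteomic profiling in live THP-1 cells with an iodoacetamide desthiobiotin (IA-DTB) probe, comparing probe-labelled peptide intensities in compound-treated cells against DMSO-treated controls.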

Sequences of proteins named here, by UniProt entry; tags and fusion partners are left off. A change or cut given only in a name is not applied to a line headed by its entry.
UniProt Q9HBH5: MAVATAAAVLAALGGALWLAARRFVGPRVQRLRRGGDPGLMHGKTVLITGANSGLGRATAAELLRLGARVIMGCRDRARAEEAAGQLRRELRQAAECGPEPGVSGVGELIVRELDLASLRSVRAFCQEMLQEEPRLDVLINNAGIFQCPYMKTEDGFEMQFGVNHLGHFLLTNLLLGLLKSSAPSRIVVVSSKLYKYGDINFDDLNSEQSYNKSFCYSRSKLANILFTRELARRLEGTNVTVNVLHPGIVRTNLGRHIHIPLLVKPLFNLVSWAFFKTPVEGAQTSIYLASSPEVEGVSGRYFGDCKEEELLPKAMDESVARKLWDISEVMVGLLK
UniProt Q9BWE0: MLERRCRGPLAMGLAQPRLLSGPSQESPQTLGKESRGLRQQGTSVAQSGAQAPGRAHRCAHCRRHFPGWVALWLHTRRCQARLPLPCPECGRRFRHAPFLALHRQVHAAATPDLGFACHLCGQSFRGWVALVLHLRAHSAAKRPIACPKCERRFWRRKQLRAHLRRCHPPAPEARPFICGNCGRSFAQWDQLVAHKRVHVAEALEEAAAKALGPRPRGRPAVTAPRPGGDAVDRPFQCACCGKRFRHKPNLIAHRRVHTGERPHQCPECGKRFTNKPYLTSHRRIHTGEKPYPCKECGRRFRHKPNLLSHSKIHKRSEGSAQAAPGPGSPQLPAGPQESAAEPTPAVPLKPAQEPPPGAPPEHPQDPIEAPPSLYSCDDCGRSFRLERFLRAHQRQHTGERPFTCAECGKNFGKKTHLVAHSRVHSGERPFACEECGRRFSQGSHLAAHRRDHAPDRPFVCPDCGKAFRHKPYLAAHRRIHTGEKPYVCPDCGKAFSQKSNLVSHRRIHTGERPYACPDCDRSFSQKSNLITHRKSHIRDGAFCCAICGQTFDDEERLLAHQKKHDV
UniProt Q9Y3B8: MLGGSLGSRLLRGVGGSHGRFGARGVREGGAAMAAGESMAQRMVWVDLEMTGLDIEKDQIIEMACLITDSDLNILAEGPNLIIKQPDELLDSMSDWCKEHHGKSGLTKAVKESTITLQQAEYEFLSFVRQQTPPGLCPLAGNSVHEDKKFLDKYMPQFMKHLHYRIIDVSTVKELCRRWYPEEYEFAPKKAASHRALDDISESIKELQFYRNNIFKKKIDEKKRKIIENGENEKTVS
UniProt P40938, whole entry, looked up: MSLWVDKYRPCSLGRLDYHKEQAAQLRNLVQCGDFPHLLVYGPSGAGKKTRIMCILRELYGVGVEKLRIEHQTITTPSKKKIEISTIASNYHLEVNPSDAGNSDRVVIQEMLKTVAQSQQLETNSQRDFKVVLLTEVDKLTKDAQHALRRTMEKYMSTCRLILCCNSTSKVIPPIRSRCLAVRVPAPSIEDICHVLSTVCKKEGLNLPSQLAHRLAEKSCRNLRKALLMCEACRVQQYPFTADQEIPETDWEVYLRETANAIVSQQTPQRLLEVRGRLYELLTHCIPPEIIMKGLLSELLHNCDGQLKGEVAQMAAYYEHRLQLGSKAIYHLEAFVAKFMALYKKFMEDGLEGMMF
UniProt O14730: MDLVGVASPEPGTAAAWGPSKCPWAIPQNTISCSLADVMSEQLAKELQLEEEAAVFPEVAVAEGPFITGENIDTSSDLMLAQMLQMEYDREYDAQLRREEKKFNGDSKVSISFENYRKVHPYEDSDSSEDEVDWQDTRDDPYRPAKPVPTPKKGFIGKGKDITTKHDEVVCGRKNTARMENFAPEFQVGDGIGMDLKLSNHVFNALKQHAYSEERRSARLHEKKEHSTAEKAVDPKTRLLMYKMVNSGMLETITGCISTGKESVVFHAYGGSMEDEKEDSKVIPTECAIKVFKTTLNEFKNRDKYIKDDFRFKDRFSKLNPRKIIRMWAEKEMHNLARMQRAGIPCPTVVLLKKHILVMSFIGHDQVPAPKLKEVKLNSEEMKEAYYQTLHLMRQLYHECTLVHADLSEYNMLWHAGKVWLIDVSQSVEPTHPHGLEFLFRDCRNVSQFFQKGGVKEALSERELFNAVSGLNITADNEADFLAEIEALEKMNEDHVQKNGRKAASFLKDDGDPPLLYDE
UniProt Q13546: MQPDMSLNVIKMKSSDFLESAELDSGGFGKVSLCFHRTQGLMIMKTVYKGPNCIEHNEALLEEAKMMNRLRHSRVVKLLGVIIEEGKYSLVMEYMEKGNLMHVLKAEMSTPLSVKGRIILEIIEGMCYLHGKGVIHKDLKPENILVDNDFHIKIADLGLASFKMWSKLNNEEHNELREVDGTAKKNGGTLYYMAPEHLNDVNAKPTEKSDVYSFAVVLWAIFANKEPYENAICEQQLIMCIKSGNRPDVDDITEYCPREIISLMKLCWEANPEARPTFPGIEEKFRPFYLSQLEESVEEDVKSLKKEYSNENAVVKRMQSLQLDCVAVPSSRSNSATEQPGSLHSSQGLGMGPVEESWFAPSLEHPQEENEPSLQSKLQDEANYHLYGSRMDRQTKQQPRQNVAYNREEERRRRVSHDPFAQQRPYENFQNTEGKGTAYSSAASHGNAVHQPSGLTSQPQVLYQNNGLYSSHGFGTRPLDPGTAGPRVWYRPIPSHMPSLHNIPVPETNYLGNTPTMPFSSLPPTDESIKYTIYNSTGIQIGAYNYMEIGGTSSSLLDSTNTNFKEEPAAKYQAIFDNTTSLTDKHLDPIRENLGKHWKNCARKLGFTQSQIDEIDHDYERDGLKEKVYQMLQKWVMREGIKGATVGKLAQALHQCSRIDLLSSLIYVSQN
UniProt P46063: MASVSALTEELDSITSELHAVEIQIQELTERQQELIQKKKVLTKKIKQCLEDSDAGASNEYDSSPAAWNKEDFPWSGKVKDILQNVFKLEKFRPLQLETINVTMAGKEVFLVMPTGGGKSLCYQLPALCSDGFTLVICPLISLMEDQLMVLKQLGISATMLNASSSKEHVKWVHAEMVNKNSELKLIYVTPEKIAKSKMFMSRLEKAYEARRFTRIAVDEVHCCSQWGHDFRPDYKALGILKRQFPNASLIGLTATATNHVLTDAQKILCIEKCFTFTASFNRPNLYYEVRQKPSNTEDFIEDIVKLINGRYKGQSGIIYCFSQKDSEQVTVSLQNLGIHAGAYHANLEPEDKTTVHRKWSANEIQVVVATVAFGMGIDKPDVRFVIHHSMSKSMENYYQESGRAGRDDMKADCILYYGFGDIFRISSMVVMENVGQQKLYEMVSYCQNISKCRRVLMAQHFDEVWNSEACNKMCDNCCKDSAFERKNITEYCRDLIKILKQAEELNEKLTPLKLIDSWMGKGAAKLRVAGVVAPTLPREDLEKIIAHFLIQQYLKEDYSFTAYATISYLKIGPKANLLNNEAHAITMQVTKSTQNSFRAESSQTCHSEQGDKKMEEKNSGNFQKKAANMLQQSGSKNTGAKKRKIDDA
UniProt Q13129: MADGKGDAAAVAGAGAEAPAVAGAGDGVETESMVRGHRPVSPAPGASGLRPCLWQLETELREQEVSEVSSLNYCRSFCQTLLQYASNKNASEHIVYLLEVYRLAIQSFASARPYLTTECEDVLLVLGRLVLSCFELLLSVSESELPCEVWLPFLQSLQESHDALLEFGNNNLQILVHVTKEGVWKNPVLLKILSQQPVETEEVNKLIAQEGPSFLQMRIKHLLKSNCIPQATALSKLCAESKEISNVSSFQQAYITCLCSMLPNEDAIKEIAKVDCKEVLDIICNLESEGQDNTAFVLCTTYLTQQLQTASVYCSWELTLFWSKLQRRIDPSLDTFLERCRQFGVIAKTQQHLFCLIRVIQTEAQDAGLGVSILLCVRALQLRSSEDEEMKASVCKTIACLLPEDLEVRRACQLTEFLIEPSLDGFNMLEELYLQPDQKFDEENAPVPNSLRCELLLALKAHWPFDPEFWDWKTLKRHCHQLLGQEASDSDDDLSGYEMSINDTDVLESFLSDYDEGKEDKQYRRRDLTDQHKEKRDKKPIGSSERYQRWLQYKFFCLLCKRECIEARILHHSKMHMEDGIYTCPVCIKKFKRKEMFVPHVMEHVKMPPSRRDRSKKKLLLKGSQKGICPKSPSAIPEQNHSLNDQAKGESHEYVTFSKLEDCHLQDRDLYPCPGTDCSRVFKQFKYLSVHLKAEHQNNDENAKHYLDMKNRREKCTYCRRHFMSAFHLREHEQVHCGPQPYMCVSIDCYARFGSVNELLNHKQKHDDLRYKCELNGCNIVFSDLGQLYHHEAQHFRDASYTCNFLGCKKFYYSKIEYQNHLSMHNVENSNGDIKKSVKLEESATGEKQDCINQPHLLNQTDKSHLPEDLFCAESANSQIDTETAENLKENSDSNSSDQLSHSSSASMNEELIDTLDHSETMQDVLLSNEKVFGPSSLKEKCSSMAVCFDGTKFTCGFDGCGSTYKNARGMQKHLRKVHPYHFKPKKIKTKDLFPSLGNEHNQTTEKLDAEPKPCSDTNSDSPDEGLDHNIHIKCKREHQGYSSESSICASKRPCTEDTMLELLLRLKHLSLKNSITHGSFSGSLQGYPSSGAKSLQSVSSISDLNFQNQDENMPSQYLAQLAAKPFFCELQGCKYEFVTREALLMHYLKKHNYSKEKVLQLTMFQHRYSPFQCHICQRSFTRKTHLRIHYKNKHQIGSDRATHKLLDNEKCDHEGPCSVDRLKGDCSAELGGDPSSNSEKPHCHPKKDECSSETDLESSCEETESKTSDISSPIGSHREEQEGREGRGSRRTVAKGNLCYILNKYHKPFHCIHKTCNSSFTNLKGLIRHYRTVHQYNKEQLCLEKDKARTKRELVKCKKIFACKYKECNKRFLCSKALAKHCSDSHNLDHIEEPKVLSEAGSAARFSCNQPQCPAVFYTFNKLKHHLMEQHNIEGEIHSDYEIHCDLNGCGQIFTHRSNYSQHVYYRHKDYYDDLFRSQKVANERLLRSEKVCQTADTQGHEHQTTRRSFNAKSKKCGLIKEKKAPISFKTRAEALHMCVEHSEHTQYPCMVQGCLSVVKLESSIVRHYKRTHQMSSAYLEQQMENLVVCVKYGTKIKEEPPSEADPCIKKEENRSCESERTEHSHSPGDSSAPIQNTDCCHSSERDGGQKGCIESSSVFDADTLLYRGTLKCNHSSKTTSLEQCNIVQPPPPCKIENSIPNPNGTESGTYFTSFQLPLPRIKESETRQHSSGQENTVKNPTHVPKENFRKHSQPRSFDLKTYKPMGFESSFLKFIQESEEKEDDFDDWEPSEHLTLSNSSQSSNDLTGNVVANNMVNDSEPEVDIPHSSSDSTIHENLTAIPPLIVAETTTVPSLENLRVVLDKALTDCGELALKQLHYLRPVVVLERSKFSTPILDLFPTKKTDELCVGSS
UniProt O94761: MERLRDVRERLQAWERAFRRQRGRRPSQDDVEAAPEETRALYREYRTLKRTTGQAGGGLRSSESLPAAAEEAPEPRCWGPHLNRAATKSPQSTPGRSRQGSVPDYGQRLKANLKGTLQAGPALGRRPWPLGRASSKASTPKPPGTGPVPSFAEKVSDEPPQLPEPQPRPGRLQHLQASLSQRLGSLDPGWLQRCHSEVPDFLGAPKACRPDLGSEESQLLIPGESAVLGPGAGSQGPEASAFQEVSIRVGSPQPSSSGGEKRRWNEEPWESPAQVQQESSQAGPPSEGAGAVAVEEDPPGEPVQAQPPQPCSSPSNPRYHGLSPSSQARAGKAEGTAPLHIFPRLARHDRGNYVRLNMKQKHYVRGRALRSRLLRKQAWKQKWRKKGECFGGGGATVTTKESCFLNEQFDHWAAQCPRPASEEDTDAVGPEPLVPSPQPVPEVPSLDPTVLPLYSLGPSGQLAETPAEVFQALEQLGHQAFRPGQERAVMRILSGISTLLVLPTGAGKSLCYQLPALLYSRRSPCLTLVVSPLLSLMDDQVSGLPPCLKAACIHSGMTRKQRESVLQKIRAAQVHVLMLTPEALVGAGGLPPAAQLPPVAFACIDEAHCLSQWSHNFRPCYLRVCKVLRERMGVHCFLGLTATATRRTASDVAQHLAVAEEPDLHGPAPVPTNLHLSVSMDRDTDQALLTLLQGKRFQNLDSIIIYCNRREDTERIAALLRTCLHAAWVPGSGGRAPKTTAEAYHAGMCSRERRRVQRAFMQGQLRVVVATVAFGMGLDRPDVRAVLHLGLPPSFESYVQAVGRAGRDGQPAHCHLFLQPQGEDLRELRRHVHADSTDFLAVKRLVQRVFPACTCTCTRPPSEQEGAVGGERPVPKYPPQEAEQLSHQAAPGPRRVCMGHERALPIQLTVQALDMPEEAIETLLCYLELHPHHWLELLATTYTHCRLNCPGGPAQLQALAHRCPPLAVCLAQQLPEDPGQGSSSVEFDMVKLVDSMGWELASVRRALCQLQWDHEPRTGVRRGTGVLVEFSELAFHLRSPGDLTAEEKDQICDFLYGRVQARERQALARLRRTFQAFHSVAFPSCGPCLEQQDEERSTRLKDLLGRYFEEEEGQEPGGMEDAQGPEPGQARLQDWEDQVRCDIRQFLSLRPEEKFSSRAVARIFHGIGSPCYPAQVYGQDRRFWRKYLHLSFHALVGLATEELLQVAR

Target	probe-labelled cysteine peptide fold change (10 µM)	probe-labelled cysteine peptide fold change (50 µM)
RDH14_Q9HBH5_97_QAAECGPEPGVSGVGELIVR (UniProt Q9HBH5)	0.0397	-0.104
RELA_Q04206_105_DGFYEAELCPDR (UniProt Q04206)	-0.0141	-0.143
REPIN1_Q9BWE0_520_IHTGERPYACPDCDR (UniProt Q9BWE0)	0.00925	0.0513
REXO2_Q9Y3B8_137_QQTPPGLCPLAGNSVHEDK (UniProt Q9Y3B8)	0.167	-0.0434
RFC3_P40938_233_ALLMCEACR (UniProt P40938)	-0.032	0.259
RING1_Q06587_48+51_SLHSELMCPICLDMLK (UniProt Q06587)	0.0435	-0.248
RIOK3_O14730_346_AGIPCPTVVLLKK (UniProt O14730)	-0.187	-0.0964
RGP1_Q92546_314_TSFSLPIPLSSTPGFCTAIVSLK (UniProt Q92546)	-0.0704	0.306
RNF126_Q9BV68_13_YFCHCCSVEIVPR (UniProt Q9BV68)	0.17	0.0535
RIPK1_Q13546_256_SGNRPDVDDITEYCPR (UniProt Q13546)	-0.0287	0.025
RECQL_P46063_321_GQSGIIYCFSQK (UniProt P46063)	0.0322	0.131
RHBDF2_Q6PJF5_181_DLELPSQEAPSFQGTESPKPCK (UniProt Q6PJF5)	-0.164	-0.26
RLF_Q13129_400_TIACLLPEDLEVRR (UniProt Q13129)	0.0371	0.152
RIOK2_Q9BVS4_197_HAVVMELINGYPLCQIHHVEDPASVYDEAMELIVK (UniProt Q9BVS4)	0.223	0.107
RICTOR_Q6R327_893_TGCHLLEVQNIITELCR (UniProt Q6R327)	-0.0249	-0.134
RECQL4_O94761_897_VCMGHER (UniProt O94761)	-0.0367	-0.142
RNASE3_P12724_138_FYVVACDNRDPR (UniProt P12724)	-0.164	-0.135
RFC2_P35250_255_VCDEPHPLLVK (UniProt P35250)	0.181	0.104
RIPK1_Q13546_34_VSLCFHR (UniProt Q13546)	0.0614	0.0917
RLF_Q13129_1212+1218_CDHEGPCSVDR (UniProt Q13129)	0.167	0.0424

Target	probe-labelled cysteine peptide fold change (10 µM)	probe-labelled cysteine peptide fold change (50 µM)
RFTN1_Q14699_211_PGTGDVCSAPAGR (UniProt Q14699)	-0.0231	-0.0419
REL_Q04864_208_GGDEIFLLCDK (UniProt Q04864)	-0.0868	0.0839
RHOG_P84095_105_WHPEVCHHCPDVPILLVGTK (UniProt P84095)	0.105	0.0932
RLF_Q13129_400_TIACLLPEDLEVR (UniProt Q13129)	0.279	0.0499
RGS10_O43665_66_EFSEENVLFWLACEDFKK (UniProt O43665)	-0.0879	-0.0221
RIOK3_O14730_171_HDEVVCGR (UniProt O14730)	-0.149	-0.139
RNASEH2B_Q5TBB1_7_AAGVDCGDGVGAR (UniProt Q5TBB1)	-0.0431	0.265
RELCH_Q9P260_548_REELIPLILCTACLHPEPK (UniProt Q9P260)	0.228	0.246
REXO4_Q9GZR2_382_ILGLQVQQAEHCSIQDAQAAMR (UniProt Q9GZR2)	0.098	-0.355
RECQL_P46063_606_AESSQTCHSEQGDK (UniProt P46063)	0.0906	-0.0193
RECQL_P46063_321_YKGQSGIIYCFSQK (UniProt P46063)	-0.364	-0.27
RIPOR1_Q6ZS17_289_GLANHVVVGSVSCETK (UniProt Q6ZS17)	-0.0889	0.0156
RMDN1_Q96DB5_170_WYAICLSDVGDYEGIK (UniProt Q96DB5)	0.268	0.237
REPIN1_Q9BWE0_269_VHTGERPHQCPECGKR (UniProt Q9BWE0)	-0.0177	-0.0657
RIF1_Q5UIP0_731_CAALVATAEENLCCEELSSK (UniProt Q5UIP0)	0.368	0.222
RFC3_P40938_11_YRPCSLGR (UniProt P40938)	-0.00259	0.062
RIPK2_O43353_455_REDIVNQMTEACLNQSLDALLSR (UniProt O43353)	-0.181	-0.0668
RECQL5_O94762_188_LGHAPCVALTATATPQVQEDVFAALHLK (UniProt O94762)	-0.174	-0.156
RECQL4_O94761_636_MGVHCFLGLTATATR (UniProt O94761)	-0.0439	-0.0919

Reference: the supplement of paper PMC12067093, “Discovery and optimisation of a covalent ligand for TRIM25 and its application to targeted protein ubiquitination” (Chemical Science, 2025)
